Laboratory results taken from publication doi:10.1101/2025.03.01.640934.
No constants are given. Whether binding was seen depends on the method and setting. Binding seen in cells or lysates may run through a third protein. Here binding means that the protein was enriched with, or labelled near, the bait; the list need not be complete.

Chains of the proteins cited; added tags and fusions are not shown.
UniProt Q6NUN9: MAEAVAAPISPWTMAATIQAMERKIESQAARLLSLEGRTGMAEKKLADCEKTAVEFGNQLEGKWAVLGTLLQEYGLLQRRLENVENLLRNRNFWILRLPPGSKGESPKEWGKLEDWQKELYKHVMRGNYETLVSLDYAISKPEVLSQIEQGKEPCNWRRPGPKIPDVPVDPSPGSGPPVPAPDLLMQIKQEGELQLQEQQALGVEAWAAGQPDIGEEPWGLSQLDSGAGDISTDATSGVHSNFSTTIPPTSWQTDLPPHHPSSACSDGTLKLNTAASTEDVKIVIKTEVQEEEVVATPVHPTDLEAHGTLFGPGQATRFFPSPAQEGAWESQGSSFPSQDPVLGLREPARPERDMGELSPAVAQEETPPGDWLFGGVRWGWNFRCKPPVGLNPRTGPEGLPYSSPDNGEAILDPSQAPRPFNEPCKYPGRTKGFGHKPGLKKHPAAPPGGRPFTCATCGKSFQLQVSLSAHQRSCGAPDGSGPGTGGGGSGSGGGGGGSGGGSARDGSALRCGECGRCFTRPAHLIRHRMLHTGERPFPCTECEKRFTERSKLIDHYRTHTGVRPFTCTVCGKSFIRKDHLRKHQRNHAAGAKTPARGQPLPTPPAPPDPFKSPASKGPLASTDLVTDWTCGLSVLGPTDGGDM

Molecular target: full-length ZNF746 fused to TurboID (human) (UniProt Q6NUN9)
Assay: proximity labelling

B1: RNA helicase UPF1 (protein, UniProt Q92900 1-1129)
chain: MSVEAYGPSSQTLTFLDTEEAELLGADTQGSEFEFTDFTLPSQTQTPPGGPGGPGGGGAGGPGGAGAGAAAGQLDAQVGPEGILQNGAVDDSVAKTSQLLAELNFEEDEEDTYYTKDLPIHACSYCGIHDPACVVYCNTSKKWFCNGRGNTSGSHIVNHLVRAKCKEVTLHKDGPLGETVLECYNCGCRNVFLLGFIPAKADSVVVLLCRQPCASQSSLKDINWDSSQWQPLIQDRCFLSWLVKIPSEQEQLRARQITAQQINKLEELWKENPSATLEDLEKPGVDEEPQHVLLRYEDAYQYQNIFGPLVKLEADYDKKLKESQTQDNITVRWDLGLNKKRIAYFTLPKTDSGNEDLVIIWLRDMRLMQGDEICLRYKGDLAPLWKGIGHVIKVPDNYGDEIAIELRSSVGAPVEVTHNFQVDFVWKSTSFDRMQSALKTFAVDETSVSGYIYHKLLGHEVEDVIIKCQLPKRFTAQGLPDLNHSQVYAVKTVLQRPLSLIQGPPGTGKTVTSATIVYHLARQGNGPVLVCAPSNIAVDQLTEKIHQTGLKVVRLCAKSREAIDSPVSFLALHNQIRNMDSMPELQKLQQLKDETGELSSADEKRYRALKRTAERELLMNADVICCTCVGAGDPRLAKMQFRSILIDESTQATEPECMVPVVLGAKQLILVGDHCQLGPVVMCKKAAKAGLSQSLFERLVVLGIRPIRLQVQYRMHPALSAFPSNIFYEGSLQNGVTAADRVKKGFDFQWPQPDKPMFFYVTQGQEEIASSGTSYLNRTEAANVEKITTKLLKAGAKPDQIGIITPYEGQRSYLVQYMQFSGSLHTKLYQEVEIASVDAFQGREKDFIILSCVRANEHQGIGFLNDPRRLNVALTRARYGVIIVGNPKALSKQPLWNHLLNYYKEQKVLVEGPLNNLRESLMQFSKPRKLVNTINPGARFMTTAMYDAREAIIPGSVYDRSSQGRPSSMYFQTHDQIGMISAGPSHVAAMNIPIPFNLVMPPMPPPGYFGQANGPAAGRGTPKGKTGRGGRQKNRFGLPGPSQTNLPNSQASQDVASQPFSQGALTQGYISMSQPSQMSQPGLSQPELSQDSYLGDEFKSQIDVALSQDSTYQGERAYQHGGVTGLSQY
Question: B1 was tested. Which binding did it give?
Answer: binds
